Assay results taken from PMC12592336.
Results are given in words; binding and its absence hold for the method and conditions named. Binding seen in cells or lysates may run through a third protein. A result given as binding can be weak or reduced; the word gives no strength.

Target: Rab11 (human (endogenous in HepG2))
Assay: co-IP; anti-Rab11 antibody (control IgG beside it) on NP-40 lysates (50 mM Tris-HCl pH 8.0, 150 mM NaCl, 1% NP-40) of HepG2-NTCP CDC42-WT, CDC42-CA and CDC42-DN cells, 4 °C overnight; blots with anti-NTCP and anti-CDC42

binding: binds
B1: sodium taurocholate co-transporting polypeptide (NTCP) (receptor, UniProt Q14973 1-349)
chain: MEAHNASAPFNFTLPPNFGKRPTDLALSVILVFMLFFIMLSLGCTMEFSKIKAHLWKPKGLAIALVAQYGIMPLTAFVLGKVFRLKNIEALAILVCGCSPGGNLSNVFSLAMKGDMNLSIVMTTCSTFCALGMMPLLLYIYSRGIYDGDLKDKVPYKGIVISLVLVLIPCTIGIVLKSKRPQYMRYVIKGGMIIILLCSVAVTVLSAINVGKSIMFAMTPLLIATSSLMPFIGFLLGYVLSALFCLNGRCRRTVSMETGCQNVQLCSTILNVAFPPEVIGPLFFFPLLYMIFQLGEGLLLIAIFWCYEKFKTPKDKTKMIYTAATTEETIPGALGNGTYKGEDCSPCTA
